The subject of this data set is U87MG tumors. Description: Small-animal static PET in U87MG tumor-bearing mice. It is filed as in vivo. Conditions: 1 h after injection. The procedure: All animal experimental procedures were approved by the Animal Care and Ethics Committee of Xiamen University and performed in accordance with the Guidelines for the Care and Use of Animals of the Xiamen University Laboratory Animal Center. For in vivo experiments, 6-wk-old BALB/c nude mice (Beijing Vital River Laboratory Animal Technology Co., Ltd.) were subcutaneously inoculated with HT-1080-FAP or U87 cells (5 × 10^6 in 100 μL of phosphate-buffered saline) in the right shoulder.
Dynamic PET, static PET (with or without competition), and SPECT scans with radiolabeled monomeric, dimeric, and tetrameric FAPIs were performed on HT-1080-FAP tumor–bearing mice for pharmacokinetic evaluation. Additionally, static PET with ^68Ga-labeled monomeric, dimeric, and tetrameric FAPIs was performed and compared in U87MG tumor–bearing mice.
Approximately 7.4 MBq of ^68Ga-DOTA-4P(FAPI)4 was intravenously injected into HT-1080-FAP tumor–bearing mice (n = 3) for the 60-min dynamic PET. For multiple-time-point static PET (0.5, 1, 2, and 4 h after injection), 7.4 MBq of ^68Ga-FAPI-46, ^68Ga-DOTA-2P(FAPI)2, or ^68Ga-DOTA-4P(FAPI)4 were injected into HT-1080-FAP and U87MG tumor–bearing mice (3/group). For longer-term observation, HT-1080-FAP tumor–bearing mice were intravenously injected with 7.4 MBq of ^64Cu-NOTA-2P(FAPI)2 or ^64Cu-NOTA-4P(FAPI)4 (3/group). […]

For the compound `CN(CCCN1CCN(C(=O)COCCOCCOCCNC(=O)CCC(=O)NCCCC[C@H](NC(=O)CCC(=O)NCCOCCOCCOCC(=O)N2CCN(CCCN(C)c3ccc4nccc(C(=O)NCC(=O)N5CC(F)(F)C[C@H]5C#N)c4c3)CC2)C(=O)NCCCC[C@H](NC(=O)[C@H](CCCCNC(=O)CN2CCN(CC(=O)[O-])CCN(CC(=O)[O-])CCN(CC(=O)[O-])CC2)NC(=O)CCC(=O)NCCOCCOCCOCC(=O)N2CCN(CCCN(C)c3ccc4nccc(C(=O)NCC(=O)N5CC(F)(F)C[C@H]5C#N)c4c3)CC2)C(=O)NCCOCCOCCOCC(=O)N2CCN(CCCN(C)c3ccc4nccc(C(=O)NCC(=O)N5CC(F)(F)C[C@H]5C#N)c4c3)CC2)CC1)c1ccc2nccc(C(=O)NCC(=O)N3CC(F)(F)C[C@H]3C#N)c2c1.[68Ga+3]` [^68Ga-DOTA-4P(FAPI)4], the “tumor uptake relative to ^68Ga-DOTA-2P(FAPI)2” value is given as “approximately 2 fold” and the “tumor uptake relative to ^68Ga-FAPI-46” value is “more than 4 fold”.

These data come from article PMC10478824, “Development of FAPI Tetramers to Improve Tumor Uptake and Efficacy of FAPI Radioligand Therapy” (Journal of Nuclear Medicine, 2023).
